# Source: publication PMC12040169 (PLOS Biology, 2025)
# Some of the results follow.
# Test system: T1, CTL2-GFP (C. trachomatis L2/434/Bu, GFP-expressing)
# T1 construct: L2/434/Bu, GFP-expressing
# Set-up: species or system HeLa; Intracellular C. trachomatis growth in HeLa cells, bulk GFP fluorescence relative to DMSO
# Conditions: bulk GFP, single well; 28.5 h, 10 µM; inhibitor
row,SMILES,% of control remaining
1,C=C(C)CN1CCN(C(=O)c2ccnc3ccc(Cl)cc23)CC1 [CBK282617],89.5298%
2,Cc1nc(S(=O)(=O)N2CCOC3(CCCC3)C2)cn1C [CBK304834],87.0559%
3,CC(C)c1ccc(NS(=O)(=O)c2ccc(F)c(C(=O)O)c2)cc1 [CBK297940],155.509%
4,Fc1ccc(CCN2CCC(c3nc(-c4cccnc4)no3)CC2)cc1 [CBK051464],125.145%
5,Cc1cccc(OCC(=O)NC(=S)Nc2cccc(C(=O)O)c2C)c1 [CBK265067],88.259%
6,O=C(O)c1ccc(S(=O)(=O)NCc2ccccc2)cc1 [CBK262093],100%
7,O=C(Cn1c(-c2ccco2)cc2cccnc21)N1CCCC1 [CBK282683],108.438%
8,Cc1nc(CN2CCN(c3ccc4nnc(C(F)(F)F)n4n3)CC2)cs1 [CBK239750],151.708%
9,COc1cccc2ncn(CCCc3c(C)n[nH]c3C)c(=O)c12 [CBK307153],107.822%
10,OCCOc1ncnc2ccccc12 [CBK001412],120.528%
11,COc1ccc(C(C)C)cc1-c1nccnc1NCCc1c[nH]c2ccccc12 [CBK036650],161.952%
12,CC(C)c1csc(CNC(=O)NC2CCCN(c3ccn(C)n3)C2=O)n1 (stereo not shown) [CBK304447],121.851%
13,Cc1[nH]c(=O)c(S(=O)(=O)c2ccccc2)c(C)c1Cl [CBK018736],115.346%
14,O=C(CCC1CCCC1)n1ccn(-c2ccc3c(c2)OCO3)c1=O [CBK106631],103.842%
15,O=C(C1=C(O)C(=O)N(CCCn2ccnc2)C1c1cccc([N+](=O)[O-])c1)c1ccc(F)cc1 (stereo not shown) [CBK264571],100%
16,CC(=O)Nc1ccc(S(=O)(=O)N2CC[C@H](c3nc4ccccc4o3)C2)cc1 [CBK289373],137.388%
17,Cc1ccc(Cl)cc1NC(=O)c1cc(NC(=O)C2CCCCC2C(=O)O)ccc1N1CCCCC1 (stereo not shown) [CBK268371],113.954%
18,Cn1nc(-c2ccc(S(=O)(=O)Nc3nnc(C(F)(F)F)s3)s2)cc1C(F)(F)F [CBK062017],109.23%
19,COc1cc(Nc2cncc(-c3ccc(O)cc3)n2)c(Cl)cc1C(=O)NCC(F)(F)F [CBK126470],135.275%
20,O=C(Nc1nnc(-c2ccncc2)o1)c1ccc(F)cc1 [CBK287431],132.619%
21,COc1ccc(C(=O)N2CCC3(CCCN(C(=O)c4c(F)cccc4F)C3)C2)cc1OC (stereo not shown) [CBK131669],86.5936%
22,O=C(NC1CCCC1)c1ccc2c(c1)OCO2 [CBK002177],129.969%
23,CN1CCN(NC(=O)CSc2ccccc2)CC1 [CBK268142],113.048%
24,COc1ccc(C2NCCc3c2[nH]c2ccccc32)cc1CN1CCN(c2ccc(F)cc2)CC1 (stereo not shown) [CBK264178C],100.475%
25,CC1SC(c2cc3ccccc3o2)N(c2ccc(F)cc2F)C1=O (stereo not shown) [CBK006917],98.6689%
26,COc1ccccc1CCCNC(=O)CC1CCCCN1C (stereo not shown) [CBK282694],101.782%
27,CC(C)NC(=S)N1CC[C@@]2(NC(N)=O)N=C(N)O[C@H]2C1 [CBK010049],156.464%

# Quoted from the entries so far (four entries):
row,SMILES,% of control remaining
3,CC(C)c1ccc(NS(=O)(=O)c2ccc(F)c(C(=O)O)c2)cc1 [CBK297940],155.509%
4,Fc1ccc(CCN2CCC(c3nc(-c4cccnc4)no3)CC2)cc1 [CBK051464],125.145%
5,Cc1cccc(OCC(=O)NC(=S)Nc2cccc(C(=O)O)c2C)c1 [CBK265067],88.259%
6,O=C(O)c1ccc(S(=O)(=O)NCc2ccccc2)cc1 [CBK262093],100%

# Gathered by group: those above with a CF3 group.
row,SMILES,% of control remaining
8,Cc1nc(CN2CCN(c3ccc4nnc(C(F)(F)F)n4n3)CC2)cs1 [CBK239750],151.708%
18,Cn1nc(-c2ccc(S(=O)(=O)Nc3nnc(C(F)(F)F)s3)s2)cc1C(F)(F)F [CBK062017],109.23%
19,COc1cc(Nc2cncc(-c3ccc(O)cc3)n2)c(Cl)cc1C(=O)NCC(F)(F)F [CBK126470],135.275%

# Additional records follow:

row,SMILES,% of control remaining
1,C[C@@H]1CN(C(=O)OCCc2ccsc2)C[C@H](C)O1 [CBK200417],118.833%
2,O=C(COc1ccc(Br)cc1)Nc1ccc(CN2CCCCC2)cc1 [CBK266181],160.361%
3,Cc1cc(C)n(CC2CN(C(C)C(=O)NCc3ccco3)CCO2)n1 (stereo not shown) [CBK305351],122.947%
4,O=S1(=O)Cc2ccccc2C(Oc2cncc(N3CCNCC3)n2)C1 (stereo not shown) [CBK172344T],140.201%
5,CN(C)Cc1cnn(-c2ccc(Oc3ccccc3)cc2)n1 [CBK112865],126.174%
6,CCc1ccc(/C=C2/SC(=S)N(CCC(=O)O)C2=O)cc1 [CBK263390],111.222%
7,Cc1sc2ncn(CC(=O)NCCCN3CCCCC3)c(=O)c2c1C [CBK305831],105.247%
8,COC(=O)c1sccc1OCc1nnc(-c2ccc(Cl)c(Cl)c2)o1 [CBK067742],98.945%
9,O=C(C(OCC(F)(F)F)c1ccccc1)N1CCN(c2nccs2)CC1 (stereo not shown) [CBK298299],97.9748%
10,CCN(CC)CCCNC(=O)N1CCCC(CO)C1 (stereo not shown) [CBK156061],89.2869%
11,O=C(O)c1cccc(NCN2C(=O)c3ccc([N+](=O)[O-])cc3C2=O)c1 [CBK261100],89.7549%
12,Cc1cc(C(=O)NC(Cc2c[nH]c3ccccc23)C(=O)O)c(C)o1 (stereo not shown) [CBK286560],118.86%
13,O=C(O)CCC(=O)NNC(=O)c1ccccc1[N+](=O)[O-] [CBK261079],109.755%
14,CCc1cc2c(=O)c(-c3cnn(-c4ccccc4)c3)c(C(F)(F)F)oc2c(CN(C)C)c1O [CBK264530],100%
15,O=C(c1cc(S(=O)(=O)N2CCOCC2)ccc1Cl)N1CCCCC1CO (stereo not shown) [CBK304579],108.776%
16,Cc1ccc(C(C)C)c(OCC(O)CNC(C)C)c1 (stereo not shown) [CBK026604C],126.559%
17,O=C(CCn1cc(Br)ccc1=O)NC1CCN(Cc2ccccc2)CC1 [CBK305778],100.712%
18,CCN1CCCCC1CNC(=O)c1n[nH]c2c1CCC2 (stereo not shown) [CBK282207],142.857%
19,Cc1cc(CC(=O)NCCc2c[nH]c3ccc(Cl)cc23)on1 [CBK159774],88.8426%
20,CCCCN(C=O)c1c(CC)nc2ccc(C(=O)Nc3ccc(Cl)c(Cl)c3)cn12 [CBK145470],138.707%
21,CN(C)CCN(Cc1ccncc1)Cc1ccsc1 [CBK283206],115.982%
22,Cc1cccnc1C(NC(=O)C1CCN(CCCN2C(=O)CC3CCCCC3C2=O)CC1)c1ccc(F)cc1 (stereo not shown) [CBK147910],102.167%
23,CCCC/C=C/c1cn2ccnc2c(NCc2cc(OC)c(OC)c(OC)c2)n1 [CBK066331],153.951%
24,Cc1nc(-c2ccc(CNS(=O)(=O)c3ccc(Cl)cc3)cc2)ccc1C(N)=O [CBK285643],138.477%
25,CCCC/C=C/c1nccnc1N[C@@H](CO)C(C)C [CBK037514],117.858%
26,O=C1Nc2cc(Cl)ccc2C2=NCCCN12 [CBK284385],111.352%
27,O=C(O)c1cc(N/N=C/c2ccc(-c3ccc(Cl)c(C(=O)O)c3)o2)ccc1Cl [CBK262483],113.473%

row,SMILES,% of control remaining
1,O=C(O)CCSC1CC(=O)N(c2ccc(F)cc2)C1=O (stereo not shown) [CBK276120],124.963%
2,FC(F)(F)c1cccnc1OCCOc1ccc(Cl)cc1 [CBK116621],129.371%
3,CCCC/C=C/c1cnc(N)c(N[C@H](C)c2ccccc2)n1 [CBK064148],114.372%
4,COc1nn(C)c(CO)c1Cc1c(Cl)cccc1Cl [CBK092285T],123.379%
5,O=C(O)c1cccc(NS(=O)(=O)c2cccs2)c1 [CBK270068],168.229%
6,CS(=O)(=O)Nc1ccc(CNC(=O)c2ccccc2Nc2cccc(C(F)(F)F)c2)cc1 [CBK161732],91.5775%
7,Clc1ccc(Cl)c(-c2ccc(CNCc3cccnc3)o2)c1 [CBK269720C],104.372%
8,O=c1c2c3c(sc2nc(SCc2cc(O)[nH]n2)n1Cc1ccco1)CCC3 [CBK268301],150.113%
9,CCC1CCCCN1Cc1c(O)ccc2c(=O)c(Oc3ccc(OC)cc3)c(C(F)(F)F)oc12 (stereo not shown) [CBK263727],121.378%
10,Cc1nn(CC(=O)N2CCCC2)c(=O)c2cc3occc3n12 [CBK283621],118.815%
11,CC(C)C(=O)N[C@@H](C)Cn1nc(-c2cccs2)oc1=O [CBK284335],107.463%
12,CN(C)C(=O)c1ccc(-c2ccc(OC3CCN(C(=O)CC(C)(C)c4ccccc4)CC3)nc2)cc1 [CBK155047],72.3181%
13,COc1ccc(OC)c(NC(=O)NCCc2c[nH]cn2)c1 [CBK269956],80.7098%
14,CN(C)CCN(C)c1cc(C(F)(F)F)nc(NCc2ccc(Cl)cc2)n1 [CBK009668],113.325%
15,Cc1ccc(C2CC(=O)c3cnc(N)nc3C2)cc1 (stereo not shown) [CBK288166],134.597%
16,COCCNc1nc2c(c(N3CCSCC3)n1)CCNCC2 [CBK307510],112.761%
17,CCn1nc(C)c(-c2cncn2CCn2nc(C)c(C)c2C)c1C [CBK281782],113.732%
18,O=S(=O)(Nc1cc(O[C@@H]2CCNC2)c2occc2c1)c1ccccc1Br [CBK200020C],116.165%
19,COc1ccc(Cl)cc1S(=O)(=O)N1CCN(Cc2ccc3c(c2)OCO3)CC1 [CBK266913],172.278%
20,O=C(O)c1cccc(NS(=O)(=O)Cc2ccccc2[N+](=O)[O-])c1 [CBK038906],92.46%
21,COc1cc2c(cc1OC)CN(C(=O)CSc1nnc3ccccn13)CC2 [CBK287814],115.755%
22,COc1cc(C(=O)NCc2ccccn2)cc(OC)c1OC [CBK058552],100.949%
23,CCOc1ccc2[nH]c3c(c2c1)CN(C(=O)C1(C)CCCO1)CC3 (stereo not shown) [CBK282659],113.247%
24,Cc1ccccc1C(c1ncccc1C)N(C)C(=O)C1CCN(Cc2ccc(Cl)c(Cl)c2)CC1 (stereo not shown) [CBK148366],108.804%
25,Cc1nn(CC(=O)N2CCCC(C)C2)c(=O)c2cc3ccsc3n12 (stereo not shown) [CBK284041],162.045%
